Results reported in patent publication US20250115680A1 (PROFOUNDBIO US, published 2025).
Results are given in words; binding and its absence hold for the method and conditions named. Some results given as binding are weak or reduced against the parent protein; the word gives no strength. Values belong to the binder of their own block, whether it stands above or below them.

Molecular target: cynomolgus PTK7 extra-cellular domain (ECD) linked to His tag (cynomolgus monkey)
Assay: ELISA screening of hybridoma supernatants on cynomolgus PTK7-his

binding: binds
B1: murine antibody m2C8 (antibody, V domains shown)
VH: QIQLVQSGPELKKPGETVKISCKASGYTFTTYGMSWVKQAPGKGLKWMGWINTHSGVPTYVDEFKGRSAFSLETSASTAYLQINNLKNEDTATYFCARSPFDYGSRGAWFVYWGQGTLVTVSS
VL: DVLMTQTPLSLPVSLGDQASISCRSSQSIVHNNGDTYLEWYLQKPGQSPKLLIYKVSNRFPGVPDRFSGSGSGTDFTLKISRVEAEDLGLYYCFQGSHVPWTFGGGTKLEIK
notes: Mouse hybridoma clone, tested as culture supernatant

binding: binds
B2: murine antibody m13C4 (antibody, V domains shown)
VH: EVKLVESGGGLVKPGGSLKLSCAASGFAFSTYDMFWFRQTPEKRLEWVATISSGGGYTYYPGSVKGRFTISRDNARNTLYLQMSSLRSEDTALYYCVRPLLRDSYFYFDVWGAGTTVTVSS
VL: DIVMTQSPAIMSTSPGEKVTMTCRASSSVSSSYLHWYQQKSGASPKLWIFRTSNLASGVPARFSGSGSGTSYSLTISSVEAEDAATYYCQQYSGYPLTFGAGTKLELK
notes: as for B1

binding: binds
B3: murine antibody m2C5 (antibody, V domains shown)
VH: EVQLLSSGPELVTPGASVKISCKASGYTFTDYYINWLKQSHGKSLEWIGDINPNSGGPVYNQKFMAKATLTVDKTSNTAYMELRSLTSEDSAVYYCARGDYYGSNYNYWGQGTTLTVSS
VL: DILLTQSPAILSVSPGERVSFSCRASQNIGTSIHWYQQRTNGSPRLLIKFASESISGIPSRFSGSGSGTDFALTINSVESEDIADYYCQQSNNWPYTFGGGTKLEIK
notes: as for B1
